Results are given in words; binding and its absence hold for the method and conditions named. Binding can be weak; no strength is given.
What was measured:
scCD3εγ [1] = experiment: ELISA on scCD3εγ, DARPin titrated
scCD3εγ [2] = experiment: multi-trace SPR
scCD3εγ [3] = experiment: ELISA, biotinylated scCD3εγ on neutravidin plate, with or without 100 nM VEGF
scCD3εγ [4] = experiment: ELISA: plate-bound biotinylated scCD3εγ, His-tagged α-CD3 mono-DARPin titrated without and with 100 nM soluble VEGF
scCD3εγ [5] = experiment: ELISA: plate-bound biotinylated scCD3εγ, His-tagged α-CD3 mono-DARPin titrated, no VEGF
scCD3εγ [6] = experiment: ELISA: plate-bound biotinylated scCD3εγ, His-tagged construct titrated without and with 100 nM soluble VEGF
scCD3εγ [7] = experiment: ELISA, biotinylated scCD3εγ, construct constant, VEGF titrated
scCD3εγ [8] = experiment: ELISA: plate-bound biotinylated scCD3εγ, His-tagged construct titrated without VEGF, or 10 nM construct with titrated soluble VEGF
scCD3εγ [9] = experiment: ELISA, biotinylated scCD3εγ, with or without 100 nM VEGF
scCD3εγ [10] = experiment: ELISA, bio-scCD3εγ, 10 nM construct, VEGF 100 nM to ~0.1 nM
scCD3εγ [11] = experiment: HTRF, 20 nM construct, 1 nM bio-scCD3εγ, absence against presence of 100 nM VEGF
scCD3εγ [12] = experiment: HTRF: 20 nM His-tagged construct, 1 nM biotinylated scCD3εγ, Tb-streptavidin donor and d2-labelled antibody acceptor, without and with 100 nM soluble VEGF
scCD3εγ [13] = experiment: ELISA, biotinylated scCD3εγ on neutravidin plate, with 100 nM VEGF

Measured: binding

B1: CD3-specific binding domain (SEQ ID NO: 3) (designed binder)
chain: DLGQKLLEAAWAGQDDEVRELLKAGADVNAKNSRGWTPLHTAAQTGHLEIFEVLLKAGADVNAKNDKRVTPLHLAAALGHLEIVEVLLKAGADVNARDSWGTTPADLAAKYGHQDIAEVLQKAA
modifications: biotinylated when used as immobilized SPR ligand (site not stated)
binds: scCD3εγ [1] | scCD3εγ [2] | scCD3εγ [3] | scCD3εγ [4] | scCD3εγ [5]

B2: Switchdrug DARPin 17-1 (designed binder)
chain: MRGSHHHHHHGSDLGQKLLEAAWAGQDDEVRELLKAGADVNAKNSRGWTPLHTAAQTGHLEIFEVLLKAGADVNAKNDKRVTPLHLAAALGHLEIVEVLLKAGADVNARDSWGTTPADLAAKYGHQDIAEVLQKAAGSPTPTPTTPTPTPTTPTPTPTGSDLGKKLLQAARAGQLDEVRELLKAGADVNAKDSTGWTPLHLAAPWGHPEIVEVLLKAGADVNAKDFQGWTPLHLAAAAGHLEIVEVLLKAGADVNAKDWLGWTPLHLAASHGHLEIVEVLLKAGADVNAQDKSGKTPADLAARAGHQDIAEVLQKAA
binds: scCD3εγ [6] | scCD3εγ [7] | scCD3εγ [8] | scCD3εγ [9] | scCD3εγ [10]

B3: Switchdrug DARPin 15-3 (designed binder)
chain: MRGSHHHHHHGSDLDKKLLEAARAGQDDEVRILLKAGADVNAKDSTGWTPLHLAAPWGHPEIVEVLLKAGADVNAKDFQGWTPLHLAAAAGHLEIVEVLLKAGADVNAKDWLGWTPLHLAASHGHLEIVEVLLKAGADVNAQDKSGKTPADLAARAGHQDIAEVLQKAAGSPTPTPTTPTPTPTTPTPTPTGSDLGKKLLEAARAGQDDEVRELLKAGADVNAKDKDGYTPLHLAAREGHLEIVEVLLKAGADVNAKDKDGYTPLHLAAREGHLEIVEVLLKAGADVNAQDKSGKTPADLAADAGHEDIAEVLQKAAGSPTPTPTTPTPTPTTPTPTPTGSDLGQKLLEAAWAGQDDEVRELLKAGADVNAKNSRGWTPLHTAAQTGHLEIFEVLLKAGADVNAKNDKRVTPLHLAAALGHLEIVEVLLKAGADVNARDSWGTTPADLAAKYGHQDIAEVLQKAA
binds: scCD3εγ [6] | scCD3εγ [11] | scCD3εγ [12] | scCD3εγ [9]

B4: Switchdrug DARPin 17-A (designed binder)
chain: MRGSHHHHHHGSDLGKKLLQAARAGQLDEVRELLKAGADVNAKDQYGRTPLHLAAIKGHLEIVEVLLKAGADVNAKDSLGYTPLHLAAVEGPLEIVEVLLKAGADVNAKDAYGQTPLHIAAAWGHLEIVEVLLKAVADVNAQDKSGKTPADLAARAGHQDIAEVLQKAAGSPTPTPTTPTPTPTTPTPTPTGSDLGQKLLEAAWAGQDDEVRELLKAGADVNAKNSRGWTPLHTAAQTGHLEIFEVLLKAGADVNAKNDKRVTPLHLAAALGHLEIVEVLLKAGADVNARDSWGTTPADLAAKYGHQDIAEVLQKAAGSPTPTPTTPTPTPTTPTPTPTGSDLGKKLLQAARAGQLDEVRELLKAGADVNAKDSTGWTPLHLAAPWGHPEIVEVLLKAGADVNAKDFQGWTPLHLAAAAGHLEIVEVLLKAGADVNAKDWLGWTPLHLAASHGHLEIVEVLLKAGADVNAQDKSGKTPADLAARAGHQDIAEVLQKAA
binds: scCD3εγ [6] | scCD3εγ [9]

B5: Switchdrug DARPin 18-A (designed binder)
chain: MRGSHHHHHHGSDLGKKLLQAARAGQLDEVRELLKAGADVNAKDQYGRTPLHLAAIKGHLEIVEVLLKAGADVNAKDSLGYTPLHLAAVEGPLEIVEVLLKAGADVNAKDAYGQTPLHIAAAWGHLEIVEVLLKAVADVNAQDKSGKTPADLAARAGHQDIAEVLQKAAGSPTPTPTTPTPTPTTPTPTPTGSDLGQKLLEAAWAGQDDEVRELLKAGADVNAKNSRGWTPLHTAAQTGHLEIFEVLLKAGADVNAKNDKRVTPLHLAAALGHLEIVEVLLKAGADVNARDSWGTTPADLAAKYGHQDIAEVLQKAAGSPTPTPTTPTPTPTTPTPTPTGSDLDKKLLEAARAGQDDEVRILLKAGADVNAKDSTGWTPLHLAAPWGHPEIVEVLLKAGADVNAKDFQGWTPLHLAAAAGHLEIVEVLLKAGADVNAKDVYGWTPLHIAAASGHLEIVEVLLKAGADVNAKDWLGWTPLHLAASHGHLEIVEVLLKAGADVNAQDKSGKTPADLAARAGHQDIAEVLQKAA
binds: scCD3εγ [6] | scCD3εγ [9]

B6: Switchdrug DARPin 17-B (designed binder)
chain: MRGSHHHHHHGSDLGKKLLQAARAGQLDEVRELLKAGADVNAKDSTGWTPLHLAAPWGHPEIVEVLLKAGADVNAKDFQGWTPLHLAAAAGHLEIVEVLLKAGADVNAKDWLGWTPLHLAASHGHLEIVEVLLKAGADVNAQDKSGKTPADLAARAGHQDIAEVLQKAAGSPTPTPTTPTPTPTTPTPTPTGSDLGKKLLQAARAGQLDEVRELLKAGADVNAKDQYGRTPLHLAAIKGHLEIVEVLLKAGADVNAKDSLGYTPLHLAAVEGPLEIVEVLLKAGADVNAKDAYGQTPLHIAAAWGHLEIVEVLLKAVADVNAQDKSGKTPADLAARAGHQDIAEVLQKAAGSPTPTPTTPTPTPTTPTPTPTGSDLGQKLLEAAWAGQDDEVRELLKAGADVNAKNSRGWTPLHTAAQTGHLEIFEVLLKAGADVNAKNDKRVTPLHLAAALGHLEIVEVLLKAGADVNARDSWGTTPADLAAKYGHQDIAEVLQKAA
binds: scCD3εγ [6] | scCD3εγ [13] | scCD3εγ [9]

B7: Switchdrug DARPin 18-B (designed binder)
chain: MRGSHHHHHHGSDLDKKLLEAARAGQDDEVRILLKAGADVNAKDSTGWTPLHLAAPWGHPEIVEVLLKAGADVNAKDFQGWTPLHLAAAAGHLEIVEVLLKAGADVNAKDVYGWTPLHIAAASGHLEIVEVLLKAGADVNAKDWLGWTPLHLAASHGHLEIVEVLLKAGADVNAQDKSGKTPADLAARAGHQDIAEVLQKAAGSPTPTPTTPTPTPTTPTPTPTGSDLGKKLLQAARAGQLDEVRELLKAGADVNAKDQYGRTPLHLAAIKGHLEIVEVLLKAGADVNAKDSLGYTPLHLAAVEGPLEIVEVLLKAGADVNAKDAYGQTPLHIAAAWGHLEIVEVLLKAVADVNAQDKSGKTPADLAARAGHQDIAEVLQKAAGSPTPTPTTPTPTPTTPTPTPTGSDLGQKLLEAAWAGQDDEVRELLKAGADVNAKNSRGWTPLHTAAQTGHLEIFEVLLKAGADVNAKNDKRVTPLHLAAALGHLEIVEVLLKAGADVNARDSWGTTPADLAAKYGHQDIAEVLQKAA
binds: scCD3εγ [6] | scCD3εγ [9]
